{"source": "paper PMC7819943", "about": "“Rice protein-binding microarrays: a tool to detect cis-acting elements near promoter regions in rice”", "note": "The other results are listed elsewhere or left out.", "data": [{"molecular_target": "T1, OsSMF1 (Oryza sativa, UniProt Q6ZLB0 1-436)", "T1 sequence": "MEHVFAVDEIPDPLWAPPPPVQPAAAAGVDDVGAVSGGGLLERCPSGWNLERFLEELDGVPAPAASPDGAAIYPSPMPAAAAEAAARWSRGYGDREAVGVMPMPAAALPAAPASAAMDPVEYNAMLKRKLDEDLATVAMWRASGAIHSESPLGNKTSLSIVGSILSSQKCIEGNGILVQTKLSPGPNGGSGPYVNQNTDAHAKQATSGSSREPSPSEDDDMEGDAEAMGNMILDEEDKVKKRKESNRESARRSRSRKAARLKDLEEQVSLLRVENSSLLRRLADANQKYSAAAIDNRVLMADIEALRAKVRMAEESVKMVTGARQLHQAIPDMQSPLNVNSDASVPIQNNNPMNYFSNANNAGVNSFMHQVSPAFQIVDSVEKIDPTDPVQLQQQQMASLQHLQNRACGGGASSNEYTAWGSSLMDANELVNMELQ", "experiment": "protein-binding microarray (RPBM); PBS, 2% BSA, 51.3 ng/ul salmon testes DNA, 50 uM zinc acetate, 200 nM TF, 25 C, 1 h; high values mean tight binding", "conditions": "protein: recombinant; tags: N-terminal polyhistidine and DsRed monomer fusion (pET32a); chain copies: 2; label: CyDye5-dUTP incorporated in the synthesized complementary strand; 3' TTTTT single-stranded linker to array surface; dsDNA, one strand shown", "outline": "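Transcription factors were made in E. coli BL21-CodonPlus as N-terminal fusions to a polyhistidine tag and DsRed, then purified on Ni–NTA. After primer extension with Cy5-dUTP and blocking with 2% BSA, a custom Agilent array was exposed for 1 h at 25 °C to 200 nM protein in PBS, 2% BSA, salmon testes DNA and 50 µM zinc acetate. Washed arrays were scanned on an Axon 4000B, and the binding signal is per-feature fluorescence intensity in arbitrary units.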", "values": [{"sequence": "GGCTGGCGGGATCGGGCACGGCGATGATGTGGCGGCGGCGCGGAGTCACCTAGTGCAG", "binding signal": "10500 fluorescence intensity (a.u.)"}, {"sequence": "GACGGTGCCGGAGATGACGCAGCTCCGGTAGAACTGGCGGCGGAGTCACCTAGTGCAG", "binding signal": "3980 fluorescence intensity (a.u.)"}, {"sequence": "ATTGTGGCATGATTGCTGATTGCCATGGTTGACCTATATACGGAGTCACCTAGTGCAG", "binding signal": "3200 fluorescence intensity (a.u.)"}, {"sequence": "TCTTCCCTTGCTGTGTCATCCAGTCCAATGGGTTAAACGGCGGAGTCACCTAGTGCAG", "binding signal": "9530 fluorescence intensity (a.u.)"}, {"sequence": "CCTCCGCTTCTGCTTCATCGCTGATGATCAGCTAATCGTCCGGAGTCACCTAGTGCAG", "binding signal": "3520 fluorescence intensity (a.u.)"}, {"sequence": "CCGGTTGTGGCTGGCCCTTTCGTCATCGCTGGTTGTGGTCCGGAGTCACCTAGTGCAG", "binding signal": "4340 fluorescence intensity (a.u.)"}, {"sequence": "TACGCGATCTGATCCGCCCTTTTCCTCCGTCCCTGAGCTGCGGAGTCACCTAGTGCAG", "binding signal": "28900 fluorescence intensity (a.u.)"}, {"sequence": "ACCAGTGACTCATAGCATGACACATCAGTGTTAGTAAGAACGGAGTCACCTAGTGCAG", "binding signal": "9600 fluorescence intensity (a.u.)"}, {"sequence": "TGAAGTCAACGAGACAACTAGTAGTAGTTGTCCTTGAGACCGGAGTCACCTAGTGCAG", "binding signal": "3530 fluorescence intensity (a.u.)"}, {"sequence": "TCGCCGGCGCCCATGGAAGACACGGCGGTGGTGGCGTGGGCGGAGTCACCTAGTGCAG", "binding signal": "3140 fluorescence intensity (a.u.)"}, {"sequence": "ATGTCGCAATGATTTTGACGGCCGACCGATCGGACCTTTACGGAGTCACCTAGTGCAG", "binding signal": "3310 fluorescence intensity (a.u.)"}, {"sequence": "TTTATGTGATTGTCATTTATTTTACTGTGACTTGATTCATCGGAGTCACCTAGTGCAG", "binding signal": "3570 fluorescence intensity (a.u.)"}, {"sequence": "CATGCGTGAAATGTGACTAATATGTCTACTAATTGTCATCCGGAGTCACCTAGTGCAG", "binding signal": "4400 fluorescence intensity (a.u.)"}, {"sequence": "GGAGTTTGGTTGGTTGGTGGTGTTCTTGACGGGGCATGGACGGAGTCACCTAGTGCAG", "binding signal": "4790 fluorescence intensity (a.u.)"}, {"sequence": "ACGTTGTATGTATGATCCACCGTGGCGTGGCTTTGAAGAACGGAGTCACCTAGTGCAG", "binding signal": "4140 fluorescence intensity (a.u.)"}, {"sequence": "CGCGTGGAGCGGGCCCAGGTAGGACACGTGTCGCGCGCAGCGGAGTCACCTAGTGCAG", "binding signal": "13400 fluorescence intensity (a.u.)"}, {"sequence": "GTCAGCCTCAGCTGAACTGTCAGTCGGTTACACTGCGTGGCGGAGTCACCTAGTGCAG", "binding signal": "3770 fluorescence intensity (a.u.)"}, {"sequence": "GATCCTTACCCGTTCCTCTTGACATCACCCGTTGCCGTTCCGGAGTCACCTAGTGCAG", "binding signal": "3590 fluorescence intensity (a.u.)"}, {"sequence": "CAACCTGTCATACACACATAACTTTTCAGTTACATCATCTCGGAGTCACCTAGTGCAG", "binding signal": "3720 fluorescence intensity (a.u.)"}, {"sequence": "AAATTAGCTAATACAAAAGTATCGGGTCAGGCATGGGTTACGGAGTCACCTAGTGCAG", "binding signal": "3180 fluorescence intensity (a.u.)"}, {"sequence": "CAAACCAAGTCACGGTACACGCGTGGACCGCGCACAGATTCGGAGTCACCTAGTGCAG", "binding signal": "3720 fluorescence intensity (a.u.)"}, {"sequence": "TGCTTCTGATACTCACGTATATTTCATACACACGTGAATGCGGAGTCACCTAGTGCAG", "binding signal": "3210 fluorescence intensity (a.u.)"}, {"sequence": "TCGGGTCTCCGCGATGCCGACGCGGACGCCATCGGAGCGCCGGAGTCACCTAGTGCAG", "binding signal": "3730 fluorescence intensity (a.u.)"}, {"sequence": "ACCAGATACTACTCTAATATCATCGTCATGACATGGAGTACGGAGTCACCTAGTGCAG", "binding signal": "5240 fluorescence intensity (a.u.)"}, {"sequence": "ACCCACCTATTTTACCCTAGCCTAGTTTGCCACGACCTGGCGGAGTCACCTAGTGCAG", "binding signal": "3980 fluorescence intensity (a.u.)"}, {"sequence": "CAGTTAACCACCTAACTGATCAAACTCATTCATGTCACTCCGGAGTCACCTAGTGCAG", "binding signal": "5110 fluorescence intensity (a.u.)"}, {"sequence": "GTGCAGGTAATTGACAGATCATTTGGTTTCGACACTGCAGCGGAGTCACCTAGTGCAG", "binding signal": "4100 fluorescence intensity (a.u.)"}, {"sequence": "TGGACGGCGTCGCGCGCGGCATATGGATGGACACGGCACCCGGAGTCACCTAGTGCAG", "binding signal": "3460 fluorescence intensity (a.u.)"}, {"sequence": "ATGTCTAAACTATCTTAGGACTACATTTACGCTGGTTTTGCGGAGTCACCTAGTGCAG", "binding signal": "3280 fluorescence intensity (a.u.)"}, {"sequence": "AGTAGTGAAGATCATCTCTATCGGAATTAGAGTATCAACACGGAGTCACCTAGTGCAG", "binding signal": "18300 fluorescence intensity (a.u.)"}, {"sequence": "GCCGACGCCGCGAGGGGCTACGTCACCGTCTCCACATCCACGGAGTCACCTAGTGCAG", "binding signal": "9850 fluorescence intensity (a.u.)"}, {"sequence": "CGCAGGCAGATCGGGTTAGTCACCGTCTCTCCGCCGCCGTCGGAGTCACCTAGTGCAG", "binding signal": "3530 fluorescence intensity (a.u.)"}, {"sequence": "GATGTGTGGTGATGGCCTAGGATGTGGGATGGATTTGTGGCGGAGTCACCTAGTGCAG", "binding signal": "4440 fluorescence intensity (a.u.)"}, {"sequence": "CCATCCATCCAATCGCCACCTGAGGTGGAATGTTTGTTTCCGGAGTCACCTAGTGCAG", "binding signal": "3550 fluorescence intensity (a.u.)"}, {"sequence": "ATCACCGCTTACACCACACCCCGTGACGTGTCACTTTCCACGGAGTCACCTAGTGCAG", "binding signal": "20700 fluorescence intensity (a.u.)"}, {"sequence": "TTTACCATTGCGGGTGCTCTAATAGGTGGCATGCCATGCGCGGAGTCACCTAGTGCAG", "binding signal": "4740 fluorescence intensity (a.u.)"}, {"sequence": "TTGTGTTCAGCTGGTCGAAGCAGCGCGGCCGCTGGCGTGGCGGAGTCACCTAGTGCAG", "binding signal": "31700 fluorescence intensity (a.u.)"}, {"sequence": "TTAATTTGATGCTACTAGGTCACTACTATTTTGGTACTATCGGAGTCACCTAGTGCAG", "binding signal": "4590 fluorescence intensity (a.u.)"}, {"sequence": "GACATGTGTATCATGTCGGTACAATTTATGACATCAACATCGGAGTCACCTAGTGCAG", "binding signal": "3660 fluorescence intensity (a.u.)"}, {"sequence": "TTGATCGATTCGGCAGAGTTTGCTTTGTCCACTTCATCGGCGGAGTCACCTAGTGCAG", "binding signal": "3400 fluorescence intensity (a.u.)"}, {"sequence": "AGCCCCAACGAGCCCCAACGAGCCCCAACGGTGAATCCGCCGGAGTCACCTAGTGCAG", "binding signal": "3520 fluorescence intensity (a.u.)"}, {"sequence": "TCTGAATGGACACGTTTTACAATCACATCACATAGAGTAACGGAGTCACCTAGTGCAG", "binding signal": "3140 fluorescence intensity (a.u.)"}, {"sequence": "TACACTCCAGCATCCAACTCACCATCTCCTCCTGTCCTCCCGGAGTCACCTAGTGCAG", "binding signal": "4570 fluorescence intensity (a.u.)"}, {"sequence": "TTTGGGTCACCGACATGTGGGGACAGGTGTGGACCGGCGTCGGAGTCACCTAGTGCAG", "binding signal": "16700 fluorescence intensity (a.u.)"}, {"sequence": "CCCGCCGCCAGCTTCCCGTTGACTAGGATTGTTGACCCTACGGAGTCACCTAGTGCAG", "binding signal": "5480 fluorescence intensity (a.u.)"}, {"sequence": "ATACATACATGGGAGCAAGTATTAGTATGTCAATGTAATGCGGAGTCACCTAGTGCAG", "binding signal": "3910 fluorescence intensity (a.u.)"}, {"sequence": "AATAATTTATAAATTGTTGCGTGTATTTGTACTTAGCATACGGAGTCACCTAGTGCAG", "binding signal": "4470 fluorescence intensity (a.u.)"}, {"sequence": "GGGAAAATCGACCACCCACGACAGCTGACGTCAGCATGTACGGAGTCACCTAGTGCAG", "binding signal": "20400 fluorescence intensity (a.u.)"}, {"sequence": "GAGCACGTAAGAACACACATGTACACCCCAGCTACGTACGCGGAGTCACCTAGTGCAG", "binding signal": "3700 fluorescence intensity (a.u.)"}, {"sequence": "TTTTATAATTGTTCGAGCTTAGCGGCGTCGCTGACTCCGACGGAGTCACCTAGTGCAG", "binding signal": "4420 fluorescence intensity (a.u.)"}, {"sequence": "AATGAAGGGGAGTCGATGACTCCGCTGTCCGCTCTGCCTACGGAGTCACCTAGTGCAG", "binding signal": "3350 fluorescence intensity (a.u.)"}, {"sequence": "CCCACACGTTAGTGACTCAATGTCACGGGAATGTCACCGGCGGAGTCACCTAGTGCAG", "binding signal": "5320 fluorescence intensity (a.u.)"}, {"sequence": "TGCTCAGCTCTGTCATGCAATGCAACAGGCCGTGCCAACGCGGAGTCACCTAGTGCAG", "binding signal": "3300 fluorescence intensity (a.u.)"}, {"sequence": "TTTAGGAATACATGTCTGGCTTCTGTTCATACGTAAAGGGCGGAGTCACCTAGTGCAG", "binding signal": "3140 fluorescence intensity (a.u.)"}]}]}
